Reference: article PMC3862036

Experiments:
Test in all cases: two-hybrid; yeast; BET-1 full length or fragments as pLexA-NLS baits, SMO-1 or UBC-9 as pACT preys; six serial 1:5 dilutions spotted on CSM-Leu-Trp and CSM-Leu-Trp-His, 30°C, 72 hours
[1] = biological target: BET-1 second bromodomain fragment, lysine 253 mutated into arginine (C. elegans)
[2] = biological target: BET-1 second bromodomain fragment, lysine 252 mutated into arginine (C. elegans)
[3] = biological target: BET-1 second bromodomain fragment, lysine 313 mutated into arginine (C. elegans)
[4] = biological target: BET-1 peptide covering the second bromodomain (C. elegans)
[5] = biological target: BET-1 second bromodomain fragment, lysine 315 mutated into arginine (C. elegans)
[6] = biological target: BET-1 fragment containing the extra terminal domain (C. elegans)
[7] = biological target: BET-1 second bromodomain fragment, lysine 277 mutated into arginine (C. elegans)
[8] = biological target: BET-1 second bromodomain fragment, lysine 264 mutated into arginine (C. elegans)
[9] = biological target: BET-1 second bromodomain fragment, lysine 304 mutated into arginine (C. elegans)
[10] = biological target: BET-1 second bromodomain fragment, lysine 276 mutated into arginine (C. elegans)

- binding [1]: binds
- binding [2]: no binding
- binding [3]: binds
- binding [4]: binds
- binding [5]: binds
- binding [6]: no binding
- binding [7]: binds
- binding [8]: binds
- binding [9]: binds
- binding [10]: binds
B1: UBC-9 (enzyme, UniProt Q95017 1-166)
chain: MSGIAAGRLAEERKHWRKDHPFGFIAKPVKNADGTLNLFNWECAIPGRKDTIWEGGLYRIRMLFKDDFPSTPPKCKFEPPLFHPNVYPSGTVCLSLLDENKDWKPSISIKQLLIGIQDLLNHPNIEDPAQAEAYQIYCQNRAEYEKRVKKEAVKYAAELVQKQMLE

Results are given in words; binding and its absence hold for the method and conditions named. For some of these results: Binding calls can cover weak binding; strength is not graded here.
